Source: PubChem BioAssay AID1259305 (Sanger Institute, 2017)
Test: 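Find kinase knock-downs that boost drug killing of colorectal cancer cells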 (follow-up of hits). Cells: human DIFI colorectal cancer cells. Reagents: single siRNA against human genes. Challenge: BYL719 1 µM, cetuximab 5 µg/ml or trametinib 10 nM, or DMSO vehicle, added one day after transfection; exposure time not given. Measured: 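Survival relative to a non-targeting siRNA control pool averaged across replicates, with synergy scores per drug weighing the combination against siRNA only and drug only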. Direction: synergy score with BYL719 and synergy score with Cetuximab and synergy score with Trametinib: higher = stronger combined killing than expected. Call rule: 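An siRNA counts as synergistic (synthetic lethal) when its synergy score tops 0.10 for at least one of the three drugs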.
This is one part, drawn at random, of 160 deposited reagents. 96 of them (60%) count as active. 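Each call covers one siRNA sequence in one cell line only; gene-level confirmation needs agreement across siRNAs and lines.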 The numbers tell different reagents against one gene apart. Further read-outs or replicates are left out here. Not stated in the record: the amount of reagent, the time to read-out.

| target | reagent no. | synergy score with BYL719 | synergy score with Cetuximab | synergy score with Trametinib | call |
| --- | --- | --- | --- | --- | --- |
| AK2 (adenylate kinase 2) | 1 | -0.0135 | 0.205 | 0.126 | active |
| AK2 (adenylate kinase 2) | 2 | -0.0152 | 0.234 | 0.191 | active |
| AK2 (adenylate kinase 2) | 3 | -0.248 | -0.0088 | -0.0441 | inactive |
| AK2 (adenylate kinase 2) | 4 | -0.0623 | 0.246 | 0.329 | active |
| NR2F2 (nuclear receptor subfamily 2 group F member 2) | 1 | -0.118 | 0.0786 | 0.155 | active |
| NR2F2 (nuclear receptor subfamily 2 group F member 2) | 2 | -0.239 | 0.00583 | -0.0471 | inactive |
| NR2F2 (nuclear receptor subfamily 2 group F member 2) | 3 | -0.172 | 0.0925 | 0.108 | active |
| NR2F2 (nuclear receptor subfamily 2 group F member 2) | 4 | 0.049 | 0.231 | 0.232 | active |

The list goes on; the last 2 above are carried over.
| target | reagent no. | synergy score with BYL719 | synergy score with Cetuximab | synergy score with Trametinib | call |
| --- | --- | --- | --- | --- | --- |
| NR2F2 (nuclear receptor subfamily 2 group F member 2) | 3 | -0.172 | 0.0925 | 0.108 | active |
| NR2F2 (nuclear receptor subfamily 2 group F member 2) | 4 | 0.049 | 0.231 | 0.232 | active |
| MAPKAPK2 (MAPK activated protein kinase 2) | 1 | 0.0352 | 0.0741 | -0.0971 | inactive |
| MAPKAPK2 (MAPK activated protein kinase 2) | 2 | -0.0115 | 0.107 | 0.094 | active |
| MAPKAPK2 (MAPK activated protein kinase 2) | 3 | 0.00199 | 0.0293 | 0.0449 | inactive |
| MAPKAPK2 (MAPK activated protein kinase 2) | 4 | -0.0993 | 0.0337 | -0.16 | inactive |
| PAK1 (p21 (RAC1) activated kinase 1) | 1 | 0.209 | 0.176 | 0.156 | active |
| PAK1 (p21 (RAC1) activated kinase 1) | 2 | 0.0696 | -0.0422 | 0.0866 | inactive |
| PAK1 (p21 (RAC1) activated kinase 1) | 3 | 0.0832 | 0.0718 | 0.166 | active |
| PAK1 (p21 (RAC1) activated kinase 1) | 4 | -0.0385 | 0.118 | 0.0997 | active |
| GRK5 (G protein-coupled receptor kinase 5) | 1 | -0.215 | 0.0223 | 0.0846 | inactive |
| GRK5 (G protein-coupled receptor kinase 5) | 2 | -0.208 | -0.058 | -0.13 | inactive |
| GRK5 (G protein-coupled receptor kinase 5) | 3 | 0.0815 | 0.128 | 0.233 | active |
| GRK5 (G protein-coupled receptor kinase 5) | 4 | -0.0298 | 0.128 | -0.0254 | active |
